Laboratory results as given in PMC5542437, “Assembly and stoichiometry of the core structure of the bacterial flagellar type III export gate complex” (PLoS Biology, 2017).
No constants are given. Whether binding was seen depends on the method and setting. In cells and extracts the contact can be indirect. Some results given as binding are weak or reduced against the parent protein; the word gives no strength. Tags and fused reporters may be left off the sequences shown.

T1: FliG-His (Salmonella enterica) (UniProt P0A1J9)
T1 sequence: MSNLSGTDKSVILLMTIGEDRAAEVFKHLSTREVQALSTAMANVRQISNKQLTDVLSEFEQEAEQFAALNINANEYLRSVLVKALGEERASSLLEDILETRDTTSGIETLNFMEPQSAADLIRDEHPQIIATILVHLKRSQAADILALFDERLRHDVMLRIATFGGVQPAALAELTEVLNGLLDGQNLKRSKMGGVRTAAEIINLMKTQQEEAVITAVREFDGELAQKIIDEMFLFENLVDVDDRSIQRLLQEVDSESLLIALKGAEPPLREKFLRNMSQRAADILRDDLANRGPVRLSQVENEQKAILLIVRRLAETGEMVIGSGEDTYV

T2: FliG-His (Salmonella enterica), P0A1J9
T2 chain: T1 sequence

B1: FlhB (natural protein)
chain: MAEESDDDKTEAPTPHRLEKAREEGQIPRSRELTSLLILLVGVCIIWFGGESLARQLAGMLSAGLHFDHRMVNDPNLILGQIILLIKAAMMALLPLIAGVVLVALISPVMLGGLIFSGKSLQPKFSKLNPLPGIKRMFSAQTGAELLKAVLKSTLVGCVTGFYLWHHWPQMMRLMAESPIVAMGNALDLVGLCALLVVLGVIPMVGFDVFFQIFSHLKKLRMSRQDIRDEFKESEGDPHVKGKIRQMQRAAAQRRMMEDVPKADVIVTNPTHYSVALQYDENKMSAPKVVAKGAGLIALRIREIGAEHRVPTLEAPPLARALYRHAEIGQQIPGQLYAAVAEVLAWVWQLKRWRLAGGQRPPQPENLPVPEALDFMNEKNTDG
notes: FlhB, Salmonella enterica, transmembrane export gate protein; its C-terminal cytoplasmic domain undergoes autocleavage between Asp-269 and Pro270 as printed; source: Salmonella SJW1368, pTrc99A-based plasmid, in DDM- or LMNG-solubilised membranes; co-purified
B2: His-St-FliP (Salmonella FliP with a hexahistidine tag inserted between Gln-22 and Leu-23) (natural protein)
chain: QLPGLISQPLAGGGQSWSLSVQTLVFITSLTFLPAILLMMTSFTRIIIVFGLLRNALGTPSAPPNQVLLGLALFLTFFIMSPVIDKIYVDAYQPFSEQKISMQEALDKGAQPLRAFMLRQTREADLALFARLANSGPLQGPEAVPMRILLPAYVTSELKTAFQIGFTIFIPFLIIDLVIASVLMALGMMMVPPATIALPFKLMLFVLVDGWQLLMGSLAQSFYS
notes: FliP, Salmonella enterica, 25-kDa transmembrane protein; mature form studied; the signal peptide (Met-1 to Gln-22) is cleaved during membrane insertion; tag LHHHHHH inserted between Gln-22 and Leu-23; Hexameric ring in SEC peak 2; also called His-FliP; FliP6 ring; source: Salmonella SJW1368, membranes solubilised with 1% DDM or 1% LMNG; purified (Ni-NTA, SEC); not shown: His6 (LHHHHHH), internal …
B3: FlhA (protein, UniProt P40729 1-692)
chain: MANLVAMLRLPSNLKSTQWQILAGPILILLILSMMVLPLPAFILDLLFTFNIALSIMVLLVAMFTQRTLDFAAFPTILLFTTLLRLALNVASTRIILMEGHTGAAAAGKVVEAFGHFLVGGNFAIGIVVFIILVIINFMVITKGAGRIAEVGARFVLDGMPGKQMAIDADLNAGLIGEDEAKKRRSEVTQEADFYGSMDGASKFVRGDAIAGILIMVINVVGGLLVGVLQHGMSIGSAAESYTLLTIGDGLVAQIPALVISTAAGVIVTRVSTDQDVGEQMVGQLFSNPRVMLLAAAVLGLLGMVPGMPNLVFLLFTAALLGLAWWLRGREEKAPEEPQPVKMPENNSVVEATWNDVQLEDSLGMEVGYRLIPMVDFQQDGELLGRIRSIRKKFAQDMGFLPPVVHIRDNMDLQPARYRILMKGVEIGSGDAYPGRWLAINPGTAAGTLPGEKTVDPAFGLDAIWIESALKEQAQIQGFTVVEASTVVATHLNHLIGQFSAELFGRQEAQQLLDRVSQEMPKLTEDLVPGVVTLTTLHKVLQNLLAEKVPIRDMRTILETLAEHAPLQSDPHELTAVVRVALGRAITQQWFPGNEEVQVIGLDTALERLLLQALQGGGGLEPGLADRLLAQTQEALSRQEMLGAPPVLLVNHALRPLLSRFLRRSLPQLVVLSNLELSDNRHIRMTATIGGK
B4: HA-FliQ (natural protein)
chain: MTPESVMMMGTEAMKVALALAAPLLLVALITGLIISILQAATQINEMTLSFIPKIVAVFIAIIVAGPWMLNLLLDYVRTLFSNLPYIIG
notes: FliQ, Salmonella enterica, transmembrane export gate protein; source: Salmonella SJW1368, pTrc99A-based plasmid, in DDM- or LMNG-solubilised membranes; co-purified
B5: FliR-FLAG (natural protein)
chain: MIQVTSEQWLYWLHLYFWPLLRVLALISTAPILSERAIPKRVKLGLGIMITLVIAPSLPANDTPLFSIAALWLAMQQILIGIALGFTMQFAFAAVRTAGEFIGLQMGLSFATFVDPGSHLNMPVLARIMDMLAMLLFLTFNGHLWLISLLVDTFHTLPIGSNPVNSNAFMALARAGGLIFLNGLMLALPVITLLLTLNLALGLLNRMAPQLSIFVIGFPLTLTVGIMLMAALMPLIAPFCEHLFSEIFNLLADIVSEMPINNNP
notes: FliR, Salmonella enterica, transmembrane export gate protein; also called FLAG-FliR (as printed in the methods); source: Salmonella SJW1368, pTrc99A-based plasmid, in DDM- or LMNG-solubilised membranes; co-purified (Ni-NTA, anti-FLAG gel, SEC)

Tests used:
[1] = target: T1, FliG-His (Salmonella enterica); experiment: pull-down; Ni affinity copurification with FliG-His from SJW1368 co-expressing FlhA, FlhB, FliF, FliG-His, FliO, FliP, HA-FliQ and FliR-FLAG; membranes solubilised with 1% DDM
[2] = target: T2, FliG-His (Salmonella enterica), P0A1J9; experiment: as above; settings: remark: other sources report otherwise

Binder | binding [1] | binding [2]
B1 | no binding | –
B2 | – | no binding
B3 | binds | –
B4 | no binding | –
B5 | no binding | –
